# Measured values: the supplement of paper PMC6411743
# ± gives the standard deviation of the averaged measurements. The list shows a part of the results, in another mix than the full data.
# Experiments:
# Experiment in all cases: NP40-soluble protein abundance relative to vehicle (solubility fold change) (ratio); higher = more soluble protein in presence of ATP
# PGLS = molecular target: T1, PGLS (UniProt O95336)
# T1 sequence (whole entry): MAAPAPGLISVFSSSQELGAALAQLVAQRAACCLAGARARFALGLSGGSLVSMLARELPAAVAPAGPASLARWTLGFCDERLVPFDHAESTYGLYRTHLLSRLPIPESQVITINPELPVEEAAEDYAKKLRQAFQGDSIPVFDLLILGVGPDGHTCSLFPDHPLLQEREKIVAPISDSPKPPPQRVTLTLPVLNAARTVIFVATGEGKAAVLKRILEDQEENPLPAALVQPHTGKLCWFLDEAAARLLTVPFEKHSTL
# How it was run: (§1)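 Data come from three independent experiments in which Dounce-homogenised Jurkat crude lysate was treated at eight concentrations from 0.1 to 10 mM. Treatment ran 10 min at room temperature and then 3 min at 37 °C, after which 0.8% NP40 and benzonase were added for 60 min at 4 °C before ultracentrifugation. The supernatant underwent TMT labelling and LC-MS/MS, and vsn-normalised intensities were expressed as fold change against the detergent-processed vehicle in each replicate.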
# SEC24A = molecular target: T2, SEC24A (UniProt O95486)
# T2 sequence (whole entry): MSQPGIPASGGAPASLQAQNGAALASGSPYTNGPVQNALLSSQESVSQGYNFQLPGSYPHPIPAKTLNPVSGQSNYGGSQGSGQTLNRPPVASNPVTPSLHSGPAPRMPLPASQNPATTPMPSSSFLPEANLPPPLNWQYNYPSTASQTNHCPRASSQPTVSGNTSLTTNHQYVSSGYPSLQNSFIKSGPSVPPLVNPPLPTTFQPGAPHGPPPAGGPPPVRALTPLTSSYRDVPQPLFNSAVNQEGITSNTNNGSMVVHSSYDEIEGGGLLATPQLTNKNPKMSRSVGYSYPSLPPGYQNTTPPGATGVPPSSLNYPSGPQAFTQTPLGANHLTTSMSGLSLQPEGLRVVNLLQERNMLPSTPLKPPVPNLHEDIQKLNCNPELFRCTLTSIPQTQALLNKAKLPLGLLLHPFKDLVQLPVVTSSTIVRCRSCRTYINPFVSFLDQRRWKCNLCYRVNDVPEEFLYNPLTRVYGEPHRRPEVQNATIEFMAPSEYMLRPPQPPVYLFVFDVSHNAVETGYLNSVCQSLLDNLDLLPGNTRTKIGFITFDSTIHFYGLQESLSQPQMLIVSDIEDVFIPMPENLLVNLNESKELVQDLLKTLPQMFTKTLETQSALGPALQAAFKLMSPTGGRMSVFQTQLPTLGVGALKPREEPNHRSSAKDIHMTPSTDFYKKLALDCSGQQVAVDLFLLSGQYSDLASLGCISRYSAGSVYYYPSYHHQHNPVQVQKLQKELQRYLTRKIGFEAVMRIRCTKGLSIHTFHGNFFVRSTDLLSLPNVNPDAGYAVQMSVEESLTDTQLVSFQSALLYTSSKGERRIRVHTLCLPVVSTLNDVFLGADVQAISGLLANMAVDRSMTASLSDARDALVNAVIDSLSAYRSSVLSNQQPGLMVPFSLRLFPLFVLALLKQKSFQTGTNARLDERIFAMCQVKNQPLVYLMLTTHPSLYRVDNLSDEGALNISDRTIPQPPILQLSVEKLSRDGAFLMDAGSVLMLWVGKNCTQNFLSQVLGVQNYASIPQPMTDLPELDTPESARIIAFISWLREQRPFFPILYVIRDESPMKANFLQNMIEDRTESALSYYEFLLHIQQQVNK
# How it was run: as §1
# USP1 = molecular target: T3, USP1 (UniProt O94782)
# T3 sequence (whole entry): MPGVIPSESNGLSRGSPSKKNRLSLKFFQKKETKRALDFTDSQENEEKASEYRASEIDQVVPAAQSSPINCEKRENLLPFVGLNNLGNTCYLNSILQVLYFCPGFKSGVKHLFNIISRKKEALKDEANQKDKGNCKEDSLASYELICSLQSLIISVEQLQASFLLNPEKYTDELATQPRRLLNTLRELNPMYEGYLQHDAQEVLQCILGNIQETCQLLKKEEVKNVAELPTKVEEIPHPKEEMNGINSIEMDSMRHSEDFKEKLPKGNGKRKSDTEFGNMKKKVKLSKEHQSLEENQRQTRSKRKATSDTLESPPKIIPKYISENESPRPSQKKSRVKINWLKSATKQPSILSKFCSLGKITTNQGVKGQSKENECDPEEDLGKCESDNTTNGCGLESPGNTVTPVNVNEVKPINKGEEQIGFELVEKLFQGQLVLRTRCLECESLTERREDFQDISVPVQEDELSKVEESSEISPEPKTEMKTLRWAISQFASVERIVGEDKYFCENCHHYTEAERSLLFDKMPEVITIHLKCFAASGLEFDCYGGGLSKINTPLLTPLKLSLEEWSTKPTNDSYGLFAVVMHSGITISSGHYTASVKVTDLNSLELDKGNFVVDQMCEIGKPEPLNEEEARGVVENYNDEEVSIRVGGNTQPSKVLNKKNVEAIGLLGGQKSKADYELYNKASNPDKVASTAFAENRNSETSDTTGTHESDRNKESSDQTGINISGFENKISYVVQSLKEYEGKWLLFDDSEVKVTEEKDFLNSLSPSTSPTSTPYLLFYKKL
# How it was run: as §1
# [1] = molecular target: T4, UniProt O60671 and related entries
# T4 sequence (whole entry): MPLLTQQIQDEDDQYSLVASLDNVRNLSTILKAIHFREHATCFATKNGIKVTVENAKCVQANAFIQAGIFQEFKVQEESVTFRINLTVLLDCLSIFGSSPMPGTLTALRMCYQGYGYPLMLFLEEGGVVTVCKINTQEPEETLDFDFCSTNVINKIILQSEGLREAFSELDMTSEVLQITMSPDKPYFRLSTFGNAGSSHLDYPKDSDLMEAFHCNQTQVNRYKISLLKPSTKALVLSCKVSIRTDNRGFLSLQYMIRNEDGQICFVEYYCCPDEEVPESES
# How it was run: as §1
# [2] = molecular target: T5, UniProt O75431 and related entries
# T5 sequence (whole entry): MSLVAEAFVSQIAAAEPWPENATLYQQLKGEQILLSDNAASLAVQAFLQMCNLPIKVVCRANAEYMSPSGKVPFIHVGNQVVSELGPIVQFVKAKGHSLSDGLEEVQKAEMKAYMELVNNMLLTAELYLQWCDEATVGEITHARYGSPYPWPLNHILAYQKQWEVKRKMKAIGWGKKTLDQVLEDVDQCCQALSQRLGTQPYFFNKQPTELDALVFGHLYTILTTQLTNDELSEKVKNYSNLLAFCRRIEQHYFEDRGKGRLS
# How it was run: as §1
compound,measurement,setting,value
Nc1ncnc2c1ncn2[C@@H]1O[C@H](COP(=O)(O)OP(=O)(O)OP(=O)(O)O)[C@@H](O)[C@H]1O [adenosine triphosphate],NP40-soluble protein abundance,PGLS; concentration: 6mM,0.943 ± 0.046
same,NP40-soluble protein abundance,PGLS; concentration: 8mM,0.964 ± 0.039
same,NP40-soluble protein abundance,PGLS; concentration: 10mM,0.917 ± 0.066
same,NP40-soluble protein abundance,SEC24A; concentration: 1mM,1.05 ± 0.058
same,NP40-soluble protein abundance,SEC24A; concentration: 2mM,1.03 ± 0.08
same,NP40-soluble protein abundance,SEC24A; concentration: 4mM,1.03 ± 0.079
same,NP40-soluble protein abundance,SEC24A; concentration: 6mM,0.979 ± 0.072
same,NP40-soluble protein abundance,SEC24A; concentration: 8mM,1.01 ± 0.044
same,NP40-soluble protein abundance,SEC24A; concentration: 10mM,0.979 ± 0.054
same,NP40-soluble protein abundance,USP1; concentration: 1mM,0.94 ± 0.064
same,NP40-soluble protein abundance,USP1; concentration: 2mM,0.969 ± 0.02
same,NP40-soluble protein abundance,USP1; concentration: 4mM,1.01 ± 0.021
same,NP40-soluble protein abundance,USP1; concentration: 6mM,0.979 ± 0.037
same,NP40-soluble protein abundance,USP1; concentration: 8mM,0.968 ± 0.013
same,NP40-soluble protein abundance,USP1; concentration: 10mM,0.988 ± 0.026
same,NP40-soluble protein abundance,[1]; concentration: 1mM,1.1 ± 0.09
same,NP40-soluble protein abundance,[1]; concentration: 2mM,1.09 ± 0.039
same,NP40-soluble protein abundance,[1]; concentration: 4mM,1.09 ± 0.22
same,NP40-soluble protein abundance,[1]; concentration: 6mM,1.05 ± 0.11
same,NP40-soluble protein abundance,[1]; concentration: 8mM,1.07 ± 0.081
same,NP40-soluble protein abundance,[1]; concentration: 10mM,1.06 ± 0.034
same,NP40-soluble protein abundance,[2]; concentration: 1mM,1.01 ± 0.059
same,NP40-soluble protein abundance,[2]; concentration: 2mM,0.994 ± 0.042
same,NP40-soluble protein abundance,[2]; concentration: 4mM,0.934 ± 0.037
same,NP40-soluble protein abundance,[2]; concentration: 6mM,0.914 ± 0.024
same,NP40-soluble protein abundance,[2]; concentration: 8mM,0.986 ± 0.053
same,NP40-soluble protein abundance,[2]; concentration: 10mM,0.906 ± 0.021

# Looked up one by one from the list above:
compound,measurement,setting,value
Nc1ncnc2c1ncn2[C@@H]1O[C@H](COP(=O)(O)OP(=O)(O)OP(=O)(O)O)[C@@H](O)[C@H]1O [adenosine triphosphate],NP40-soluble protein abundance,[1]; concentration: 6mM,1.05 ± 0.11
same,NP40-soluble protein abundance,[2]; concentration: 6mM,0.914 ± 0.024
